No constants are given. Whether binding was seen depends on the method and setting. Binding seen in cells or lysates may run through a third protein. Some binding calls cover weakened binding; strength is not graded here. For some assays here: Sequences can lack the tags named with a protein.
B1: NR2F2-Flag (protein, UniProt P24468 1-414)
chain: MAMVVSTWRDPQDEVPGSQGSQASQAPPVPGPPPGAPHTPQTPGQGGPASTPAQTAAGGQGGPGGPGSDKQQQQQHIECVVCGDKSSGKHYGQFTCEGCKSFFKRSVRRNLSYTCRANRNCPIDQHHRNQCQYCRLKKCLKVGMRREAVQRGRMPPTQPTHGQFALTNGDPLNCHSYLSGYISLLLRAEPYPTSRFGSQCMQPNNIMGIENICELAARMLFSAVEWARNIPFFPDLQITDQVALLRLTWSELFVLNAAQCSMPLHVAPLLAAAGLHASPMSADRVVAFMDHIRIFQEQVEKLKALHVDSAEYSCLKAIVLFTSDACGLSDVAHVESLQEKSQCALEEYVRSQYPNQPTRFGKLLLRLPSLRTVSSSVIEQLFFVRLVGKTPIETLIRDMLLSGSSFNWPYMAIQ
B2: NR2F2 (endogenous, decidual CD4+ T cells) (protein, UniProt P24468 1-414)
chain: B1 chain

Protein sequences, listed by entry. Tags and fused reporters are not part of them.
UniProt P23771: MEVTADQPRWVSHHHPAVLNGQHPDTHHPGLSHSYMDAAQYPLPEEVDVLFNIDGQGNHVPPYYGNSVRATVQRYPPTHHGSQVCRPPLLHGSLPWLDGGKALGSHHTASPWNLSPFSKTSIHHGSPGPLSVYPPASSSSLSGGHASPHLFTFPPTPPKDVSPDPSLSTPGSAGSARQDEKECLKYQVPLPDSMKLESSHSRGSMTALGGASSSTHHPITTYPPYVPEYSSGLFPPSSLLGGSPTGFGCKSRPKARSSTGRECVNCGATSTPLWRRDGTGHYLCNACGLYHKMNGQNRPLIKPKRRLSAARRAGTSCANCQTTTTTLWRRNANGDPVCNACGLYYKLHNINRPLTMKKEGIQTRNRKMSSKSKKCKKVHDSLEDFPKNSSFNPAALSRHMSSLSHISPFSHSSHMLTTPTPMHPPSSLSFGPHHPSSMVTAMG

Columns and labels:
[1] = target: GATA-3-HA (UniProt P23771); assay: co-IP; exogenous co-immunoprecipitation: 293T cells 24 h after transfection with NR2F2-Flag and GATA-3-HA plasmids; lysate with 1 ug anti-HA or anti-Flag overnight at 4°C, protein A/G-plus agarose beads, 6 washes, western blot
[2] = target: GATA-3 (endogenous, decidual CD4+ T cells) (human (endogenous in decidual CD4+ T cells)) (UniProt P23771); assay: co-IP; endogenous co-immunoprecipitation: decidual CD4+ T cells lysed in RIPA; 1 ug anti-GATA-3 or IgG overnight at 4°C, protein A/G beads, RIPA washes, western blot for NR2F2

| binding [1] | binding [2] | Binder |
| --- | --- | --- |
| binds |  | B1 |
|  | binds | B2 |

— PMC8168462
